Measurements: PubChem BioAssay AID504444 (National Center for Advancing Translational Sciences (NCATS), 2011)
The whole screen tested about 360,000 compounds, of which about 7,500 (2.1%) were called active. This list was built around the results that the source calls inconclusive (neither active nor inactive); the mix of calls is not that of the screen. The call rests on the fitted dose curve; in most records, active means well fitted inhibition curve with a large enough effect; inconclusive means small, poorly fitted or top-dose-only effect, or effect the other way; inactive means flat fitted curve, though single readings scatter. Potencies beside an inconclusive call are fits to weak or partial responses and may not hold up.

experiment: Nrf2 qHTS screen for inhibitors; conditions: A549 ARE-Fluc reporter, luciferase luminescence, 18-24 h; activity change, negative = inhibition: at 46 µM (top of the series); further: nearly all actives have a fitted effect of over 60% in size
Outline: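 Reporter: ARE-Fluc in A549. Exposure: 18-24 h, 37 °C, 5% CO2, 5% FBS OPTI-MEM. Readouts: fluorescent cytotoxicity (CellTiter-Fluor), then luminescent Nrf2 signal after BugLite.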
On the % scale 0 is the no-effect control and ±100 the full control effect; potency means the concentration at half of the fitted maximal effect.

| Compound | Potency | activity change, negative = inhibition |
| --- | --- | --- |
| COC(=O)Cn1cc(C(=O)C(F)(F)F)c2ccccc21 | inconclusive: 20.6 µM [falling, single point] | – |
| COc1ccc(NC(=O)NC(C)(C(F)(F)F)C(F)(F)F)cc1 | – | inactive: 14.1% |
| N=c1c2c(ncn1CCCO)Oc1ccc3ccccc3c1C2c1ccccc1 (stereo not given) | inconclusive: 1.16 µM [activator, full curve, poor fit] | – |
| Cc1ccc(CCC(=O)Nc2ncc(Cc3cc(Cl)ccc3Cl)s2)o1 | inconclusive: 29.1 µM [falling, single point] | – |
| O=C(c1ccc2c(c1)N(Cc1ccccc1)C(=O)c1ccccc1S2(=O)=O)N1CCN(Cc2ccccc2)CC1 | inconclusive: 25.9 µM [falling, single point] | – |
| CCCCc1ccc(S(=O)(=O)Nc2nnc(C)s2)cc1 | inconclusive: 16.4 µM [falling, partial curve, poor fit] | – |
| Cc1ccc(-c2cn3ccc(C)cc3n2)cc1 | inconclusive: 16.4 µM [falling, single point] | – |
| CC(C)CCn1c(/C=C/c2ccccc2)nc2ccccc21 | inconclusive: 16.4 µM [activator, partial curve] | – |
| Cc1cccc(-n2ncc3c2CCCC3NC(=O)CCCN2CCCCC2=O)c1C (stereo not given) | inconclusive: 29.1 µM [falling, single point] | – |
| CC[C@]12c3[nH]c4cc(-c5ccco5)ccc4c3CCN1C(=O)[C@@H](CC(=O)NCCC1=CCCCC1)C[C@@H]2C(=O)N1CCN(C(=O)c2ccco2)CC1 | inconclusive: 0.731 µM [activator, full curve, poor fit] | – |
| O=C(CSc1nnc(-c2ccco2)o1)c1ccc[nH]1 | inconclusive: 7.31 µM [activator, partial curve] | – |
| CN1CCN(C(=O)c2ccccc2Nc2ccc(SC(F)F)cc2)CC1 | – | inactive: 7.47% |
| COc1cc(C(=O)Nc2nc(-c3ccc(C)cc3)cs2)ccc1OCC(=O)N1CCOCC1 | – | inactive: -25.7% |
| O=C(Nc1ccccc1C(F)(F)F)N1CCC(n2c(=O)[nH]c3ccccc32)CC1 | inconclusive: 20.6 µM [falling, partial curve, poor fit] | – |
| COc1cccc2sc(N(C)c3ccccc3)nc12 | inconclusive: 0.517 µM [activator, full curve] | – |
| CCOC(=O)c1ccc2[nH]c(C)c(C)c2c1 | inconclusive: 18.4 µM [activator, single point] | – |
| COc1ccc(N=N/C(=C\O)C(=O)c2cccs2)cc1 | inconclusive: 20.6 µM [activator, single point] | – |
| COc1ccc(C(=O)c2sc(Nc3ccccc3)nc2N)cc1 | inconclusive: 32.6 µM [activator, single point] | – |
| O=C(Oc1coc(CSc2nnc(NC(=O)c3cccs3)s2)cc1=O)c1ccccc1 | – | inactive: 14% |
| COC(=O)C1=C(CSc2nc3ccccc3s2)NC(=O)NC1c1ccc(F)cc1 (stereo not given) | inconclusive: 29.1 µM [falling, single point] | – |
| COc1ccc(-c2onc(C)c2C)cc1S(=O)(=O)N(C)Cc1ccccc1 | active: 18.4 µM | – |
| CCOC(=O)c1cc(-c2ccccc2C)nn1CC1CC(c2cccnc2)=NO1 (stereo not given) | inconclusive: 9.2 µM [falling, partial curve, poor fit] | – |
| O=C(OCC(=O)c1ccc[nH]1)c1ccc(C(F)(F)F)cc1 | inconclusive: 4.61 µM [falling, single point] | – |
| O=C(NCc1ccccc1Cl)c1cccc(OC2CCN(C(=O)C3CC3)CC2)c1 | inconclusive: 20.6 µM [falling, single point] | – |

At a glance, some entries already given:

| Compound | Potency | activity change, negative = inhibition |
| --- | --- | --- |
| CCOC(=O)c1ccc2[nH]c(C)c(C)c2c1 | inconclusive: 18.4 µM [activator, single point] | – |
| COc1ccc(N=N/C(=C\O)C(=O)c2cccs2)cc1 | inconclusive: 20.6 µM [activator, single point] | – |
| COc1ccc(C(=O)c2sc(Nc3ccccc3)nc2N)cc1 | inconclusive: 32.6 µM [activator, single point] | – |

Additional results

| Compound | Potency | activity change, negative = inhibition |
| --- | --- | --- |
| Cc1ccc(CNC(=O)CCCC(=O)Nc2cc(C)on2)cc1 | inconclusive: 13 µM [activator, partial curve] | – |
| Cc1cc2cc(CN(C(=O)C3CC3)C3CCCC3)c3nnnn3c2cc1C | inconclusive: 18.4 µM [falling, single point] | – |
| COc1ccc(CCNc2ncnc3sccc23)cc1OC | active: 0.58 µM | – |
| C/C(=N\Nc1ccc(Cl)c(C(=O)O)c1)c1cccs1 | inconclusive: 25.9 µM [activator, partial curve, poor fit] | – |
| CN(C(=S)NC(=O)/C=C/c1ccc(F)cc1)C1CCCCC1 | inconclusive: 23.1 µM [falling, single point] | – |
| CCOc1ccccc1-c1nnc2n1N=C(c1cc(OC)ccc1OC)CS2 | – | inactive: -7.72% |
| COc1ccccc1-c1nnc(NC(=O)Cc2ccccc2)o1 | – | inactive: 9.44% |
| O=C(NCc1cccnc1)C(=O)Nc1ccc2c(c1)OCO2 | inconclusive: 2.31 µM [activator, partial curve] | – |
| c1ccc(-c2ccc(OCCOCCn3cncn3)cc2)cc1 | – | inactive: 0.0653% |
| CC(C)(C)C(=O)NC(=S)Nc1ccccn1 | inconclusive: 18.4 µM [activator, single point] | – |
| CC(=O)Oc1ccc2c(C)cc(=O)oc2c1C(=O)c1ccccc1 | – | inactive: 16% |
| O=S(=O)(c1cccnc1)N1CCN(c2nc(-c3cccs3)nc3ccccc23)CC1 | inconclusive: 23.1 µM [falling, single point] | – |
| C=CCOc1c(Br)cc(CNc2ccc(NC(=O)C(C)C)c(OC)c2)cc1OC | active: 9.2 µM | – |
| O=C1CCN(Cc2ccccc2)C(=O)N1c1ccccc1 | inconclusive: 29.1 µM [falling, partial curve, poor fit] | – |
| COc1ccc(-c2nn3c(-c4ccccc4)nnc3s2)cc1 | inconclusive: 0.13 µM [falling, full curve, poor fit] | – |
| CSCCC(NS(=O)(=O)c1ccc(Cl)cc1)C(=O)OCc1cccc(Cl)c1 (stereo not given) | – | inactive: 7.14% |
| Cc1ccc(C(=O)N/C(=C\c2ccc(Cl)cc2)C(=O)NC2CCCCC2)cc1 | – | inactive: -19% |
| N#Cc1c(-n2ncnc2-c2ccc(F)cc2)sc2c1CCCCC2 | inconclusive: 0.366 µM [activator, full curve, poor fit] | – |
| Cc1cc(OCc2nc(-c3cccs3)no2)cc(C)c1Cl | inconclusive: 32.6 µM [activator, single point] | – |
| CCOC(=O)C1CCN(C/C=C/c2ccccc2)CC1 | inconclusive: 1.3 µM [falling, full curve, poor fit] | – |
| Cc1nn(-c2ccccc2)c2c1c(C)c(CCC(=O)NCC1CCCO1)c(=O)n2C (stereo not given) | inconclusive: 29.1 µM [falling, partial curve, poor fit] | – |
| CCc1ccc(NC(=O)CSC2=C(C#N)C(c3ccco3)C3=C(CCCC3=O)N2)cc1 (stereo not given) | – | inactive: -10.3% |
| O=C(/C=C/c1ccccc1)c1ccccc1O | active: 3.66 µM | – |
| O=C(CSCc1cnn(-c2ccccc2)c1-n1cccc1)NCc1cccc(Cl)c1 | inconclusive: 29.1 µM [activator, single point] | – |

| Compound | Potency | activity change, negative = inhibition |
| --- | --- | --- |
| CCCC(=O)Nc1nnc(SCC(=O)N2C(C)CCCC2C)s1 (stereo not given) | inconclusive: 25.9 µM [falling, partial curve, poor fit] | – |
| COC1=C(Nc2ccc(OC)cc2)C(=O)c2ccccc2C1=O | – | inactive: 12% |
| O=C(Nc1cccc(O)c1)c1ccc(S(=O)(=O)N2CCCCCC2)cc1 | inconclusive: 29.1 µM [activator, single point] | – |
| CCn1c(-c2cccs2)nc2ccccc21 | – | inactive: 3.27% |
| Cc1cc(C)c2c(CC(=O)N(Cc3ccc(Cl)cc3)Cc3ccco3)coc2c1 | – | inactive: -13.3% |
| Cc1cccc(-n2cnc(C(=O)NNC(=S)Nc3ccccc3)c2)n1 | inconclusive: 7.31 µM [activator, partial curve] | – |
| COc1ccccc1Nc1ncc(C(C)=O)c(C)n1 | inconclusive: 9.2 µM [activator, partial curve, poor fit] | – |
| O=C(COC(=O)/C=C/c1ccco1)NCc1ccc(Cl)cc1Cl | inconclusive: 32.6 µM [activator, single point] | – |
| O=C(Nc1ccccc1)c1nc[nH]c1C(=O)O | – | inactive: -1.58% |
| O=C(O)c1ccc(Cl)c(S(=O)(=O)NC(Cc2ccccc2)C(=O)O)c1 (stereo not given) | inconclusive: 29.1 µM [activator, single point] | – |
| COc1cc(OC)c(N(C)C(=O)c2c(C)oc3ncn(CC(C)C)c(=O)c23)cc1Cl | – | inactive: 20.3% |
| Cc1c(-c2ccccc2)nc2c(Cl)cccc2c1C(=O)OCC(=O)c1ccc(F)cc1 | – | inactive: -9.33% |
| c1ccc(-c2nc(NCCCn3ccnc3)c3oc4ccccc4c3n2)cc1 | inconclusive: 16.4 µM [falling, partial curve, poor fit] | – |
| Cc1ccc(N2C(=O)C3C4C=CC(C4)C3C2=O)cc1 (stereo not given) | – | inactive: 0.292% |
| CCc1nnc(NC(=O)c2ccc3c(c2)C(=O)N(C(C)(C)C)C3=O)s1 | inconclusive: 2.59 µM [activator, single point] | – |
| Cc1c(Cl)cccc1NC(=O)NC1CCCCC1 | inconclusive: 0.731 µM [activator, full curve, poor fit] | – |
| Cc1ccc(NC(=O)Cn2cc(S(=O)(=O)Cc3ccc(F)cc3)c3ccccc32)cc1Cl | inconclusive: 32.6 µM [falling, single point] | – |
| Cc1cccc(-n2nnnc2SCC(=O)Nc2ccc(N3CCN(C)CC3)cc2)c1 | inconclusive: 25.9 µM [activator, partial curve, poor fit] | – |
| CCCn1c(NCc2cccc(OC)c2OC)nc2ccccc21 | inconclusive: 2.06 µM [activator, full curve, poor fit] | – |
| O=C1C(=O)N(CC2CCCO2)C(c2ccccc2[N+](=O)[O-])/C1=C(/O)c1ccccc1 (stereo not given) | inconclusive: 29.1 µM [activator, single point] | – |
| O=C(Nc1ccccc1)Nc1nccs1 | inconclusive: 23.1 µM [activator, single point] | – |
| Cc1ccc(C(=O)Cn2c(=N)n(N)c3ccccc32)cc1 | inconclusive: 13 µM [activator, partial curve, poor fit] | – |
